No constants are given. Whether binding was seen depends on the method and setting. In cells and extracts the contact can be indirect. A yes stands for co-enrichment or nearness to the bait. Other partners may have been found.

This assay concerns the target DCAF1 (human (endogenous in HEK293T)), Q9Y4B6. The assay is described as follows: affinity purification with mass spectrometry. Particulars: remark: other sources report otherwise.

B1: CUL4B, Q13620 1-913 (protein)
chain: MMSQSSGSGDGNDDEATTSKDGGFSSPSPSAAAAAQEVRSATDGNTSTTPPTSAKKRKLNSSSSSSSNSSNEREDFDSTSSSSSTPPLQPRDSASPSTSSFCLGVSVAASSHVPIQKKLRFEDTLEFVGFDAKMAEESSSSSSSSSPTAATSQQQQLKNKSILISSVASVHHANGLAKSSTTVSSFANSKPGSAKKLVIKNFKDKPKLPENYTDETWQKLKEAVEAIQNSTSIKYNLEELYQAVENLCSYKISANLYKQLRQICEDHIKAQIHQFREDSLDSVLFLKKIDRCWQNHCRQMIMIRSIFLFLDRTYVLQNSMLPSIWDMGLELFRAHIISDQKVQNKTIDGILLLIERERNGEAIDRSLLRSLLSMLSDLQIYQDSFEQRFLEETNRLYAAEGQKLMQEREVPEYLHHVNKRLEEEADRLITYLDQTTQKSLIATVEKQLLGEHLTAILQKGLNNLLDENRIQDLSLLYQLFSRVRGGVQVLLQQWIEYIKAFGSTIVINPEKDKTMVQELLDFKDKVDHIIDICFLKNEKFINAMKEAFETFINKRPNKPAELIAKYVDSKLRAGNKEATDEELEKMLDKIMIIFRFIYGKDVFEAFYKKDLAKRLLVGKSASVDAEKSMLSKLKHECGAAFTSKLEGMFKDMELSKDIMIQFKQYMQNQNVPGNIELTVNILTMGYWPTYVPMEVHLPPEMVKLQEIFKTFYLGKHSGRKLQWQSTLGHCVLKAEFKEGKKELQVSLFQTLVLLMFNEGEEFSLEEIKQATGIEDGELRRTLQSLACGKARVLAKNPKGKDIEDGDKFICNDDFKHKLFRIKINQIQMKETVEEQASTTERVFQDRQYQIDAAIVRIMKMRKTLSHNLLVSEVYNQLKFPVKPADLKKRIESLIDRDYMERDKENPNQYNYIA
Take B1: the binding entry was “binds”.

These data come from paper doi:10.1101/2023.04.09.536153.
